PMC4091708
Like-named read-outs stand apart in the source and are kept apart here. These are yes or no findings as the source states them, for the method shown. Binding seen in cells or lysates may run through a third protein. Some results given as binding are weak or reduced against the parent protein; the word gives no strength. Tags and fused reporters may be left off the sequences shown.

Protein sequences, listed by entry. Tags and fused reporters are not part of them. Residues count along the entry.
UniProt P18537, residues 19-581: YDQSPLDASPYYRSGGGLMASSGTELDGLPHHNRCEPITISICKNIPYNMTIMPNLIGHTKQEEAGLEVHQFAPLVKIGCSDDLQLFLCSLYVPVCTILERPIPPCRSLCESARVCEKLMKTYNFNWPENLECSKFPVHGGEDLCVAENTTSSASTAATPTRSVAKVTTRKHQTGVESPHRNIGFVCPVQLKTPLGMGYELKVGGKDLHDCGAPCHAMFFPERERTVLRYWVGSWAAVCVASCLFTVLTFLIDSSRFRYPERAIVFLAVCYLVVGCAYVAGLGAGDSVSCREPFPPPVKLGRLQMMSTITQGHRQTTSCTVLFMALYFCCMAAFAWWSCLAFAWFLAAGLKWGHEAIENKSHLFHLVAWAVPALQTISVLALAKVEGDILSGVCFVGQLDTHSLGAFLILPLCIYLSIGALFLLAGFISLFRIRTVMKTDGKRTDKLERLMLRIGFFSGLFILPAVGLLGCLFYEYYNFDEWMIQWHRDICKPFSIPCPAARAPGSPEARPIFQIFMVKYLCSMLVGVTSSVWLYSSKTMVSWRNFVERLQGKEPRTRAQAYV

How the values were obtained:
Experiment in all cases: co-IP; epitope-tagged proteins co-overexpressed by transient transfection in S2r+ cells; lysis in 50 mM Tris-Cl pH 7,5, 150 mM NaCl, 1% NP40, 0.2% Na-Deoxycholate with protease inhibitors; anti-Myc or anti-GFP IP overnight at 4°C on Protein A/G Sepharose; Western blot for the other tag
[1] = target: T1, Otk-GFP (GFP-tagged Off-track) (Drosophila melanogaster) (UniProt Q6AWJ9)
T1 sequence: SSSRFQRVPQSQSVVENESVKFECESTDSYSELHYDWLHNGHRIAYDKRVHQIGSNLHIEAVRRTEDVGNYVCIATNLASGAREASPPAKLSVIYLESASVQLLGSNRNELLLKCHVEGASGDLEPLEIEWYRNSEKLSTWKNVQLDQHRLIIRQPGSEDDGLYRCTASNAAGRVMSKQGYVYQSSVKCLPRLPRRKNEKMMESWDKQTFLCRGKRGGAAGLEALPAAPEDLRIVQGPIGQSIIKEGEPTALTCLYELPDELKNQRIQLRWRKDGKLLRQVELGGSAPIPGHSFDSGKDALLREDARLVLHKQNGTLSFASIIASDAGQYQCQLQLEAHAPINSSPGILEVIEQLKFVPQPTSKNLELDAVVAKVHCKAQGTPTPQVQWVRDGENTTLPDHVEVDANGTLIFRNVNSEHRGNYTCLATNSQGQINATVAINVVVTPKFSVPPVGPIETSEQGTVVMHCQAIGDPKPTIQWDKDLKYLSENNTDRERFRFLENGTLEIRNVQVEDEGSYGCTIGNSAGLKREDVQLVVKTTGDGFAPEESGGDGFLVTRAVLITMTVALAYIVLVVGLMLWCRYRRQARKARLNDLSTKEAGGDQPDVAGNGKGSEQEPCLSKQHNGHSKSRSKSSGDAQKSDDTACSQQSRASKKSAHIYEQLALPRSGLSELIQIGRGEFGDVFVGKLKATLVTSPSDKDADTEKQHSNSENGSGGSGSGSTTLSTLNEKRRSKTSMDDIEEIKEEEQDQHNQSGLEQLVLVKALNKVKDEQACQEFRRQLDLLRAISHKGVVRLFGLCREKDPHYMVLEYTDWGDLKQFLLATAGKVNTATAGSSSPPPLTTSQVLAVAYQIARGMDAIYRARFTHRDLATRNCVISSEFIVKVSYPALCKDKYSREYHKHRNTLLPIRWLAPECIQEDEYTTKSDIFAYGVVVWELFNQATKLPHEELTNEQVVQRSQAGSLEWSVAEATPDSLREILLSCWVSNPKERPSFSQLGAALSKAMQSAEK

[2] = target: T2, Otk-Myc (Myc-tagged Off-track) (Drosophila melanogaster) (UniProt Q6AWJ9)
T2 sequence: T1 sequence

[3] = target: T3, OtkDeltaCy-Myc (Myc-tagged Otk lacking the cytoplasmic domain, aa 776–1033) (Drosophila melanogaster) (UniProt Q6AWJ9)
T3 sequence: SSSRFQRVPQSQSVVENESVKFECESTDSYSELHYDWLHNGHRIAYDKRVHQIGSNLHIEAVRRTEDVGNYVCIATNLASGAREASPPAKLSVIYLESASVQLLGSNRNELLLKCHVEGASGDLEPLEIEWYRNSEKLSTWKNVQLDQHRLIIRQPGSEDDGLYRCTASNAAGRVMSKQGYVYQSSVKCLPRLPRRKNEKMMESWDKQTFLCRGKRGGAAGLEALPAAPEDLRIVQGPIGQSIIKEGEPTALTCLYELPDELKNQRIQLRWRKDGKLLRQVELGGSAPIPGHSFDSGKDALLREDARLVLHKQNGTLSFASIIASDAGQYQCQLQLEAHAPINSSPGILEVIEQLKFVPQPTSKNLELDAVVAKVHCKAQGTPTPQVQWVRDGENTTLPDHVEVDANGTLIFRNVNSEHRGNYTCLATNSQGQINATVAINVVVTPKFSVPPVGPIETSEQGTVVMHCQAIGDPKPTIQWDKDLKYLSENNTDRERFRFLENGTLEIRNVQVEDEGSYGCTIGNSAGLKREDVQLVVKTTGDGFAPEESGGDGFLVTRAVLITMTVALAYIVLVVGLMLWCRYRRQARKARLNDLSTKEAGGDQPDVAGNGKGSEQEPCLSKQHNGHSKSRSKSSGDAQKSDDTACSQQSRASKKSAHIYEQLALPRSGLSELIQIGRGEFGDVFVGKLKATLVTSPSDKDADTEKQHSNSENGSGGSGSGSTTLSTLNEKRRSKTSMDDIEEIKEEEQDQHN

[4] = target: T4, OtkDeltaEx-Myc (Myc-tagged Otk lacking the extracellular domain, aa 2–474) (Drosophila melanogaster) (UniProt Q6AWJ9)
T4 sequence: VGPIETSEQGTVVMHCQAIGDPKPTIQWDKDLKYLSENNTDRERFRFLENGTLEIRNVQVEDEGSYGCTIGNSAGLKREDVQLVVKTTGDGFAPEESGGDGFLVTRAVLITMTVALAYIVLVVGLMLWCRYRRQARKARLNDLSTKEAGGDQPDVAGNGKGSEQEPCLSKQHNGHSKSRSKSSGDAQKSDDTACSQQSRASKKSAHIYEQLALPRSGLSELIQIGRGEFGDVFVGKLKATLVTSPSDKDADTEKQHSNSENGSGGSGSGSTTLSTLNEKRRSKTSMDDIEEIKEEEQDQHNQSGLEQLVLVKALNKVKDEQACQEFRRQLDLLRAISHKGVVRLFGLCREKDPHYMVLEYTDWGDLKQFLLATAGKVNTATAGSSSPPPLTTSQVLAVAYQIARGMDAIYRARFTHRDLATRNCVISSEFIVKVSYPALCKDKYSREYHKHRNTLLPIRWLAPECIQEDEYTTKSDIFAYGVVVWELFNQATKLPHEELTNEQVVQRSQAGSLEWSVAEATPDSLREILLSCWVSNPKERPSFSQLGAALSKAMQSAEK

[5] = target: T1, Otk-GFP (GFP-tagged Off-track) (Drosophila melanogaster); remark: listed apart in the source

## Fz1-Myc (Myc-tagged Frizzled) (from UniProt P18537 19-581) (receptor)
[1]
  binding: binds

B1: Otk-GFP (GFP-tagged Off-track) (receptor, UniProt Q6AWJ9 23-1033)
chain: T1 sequence
[2]
  binding: binds
[3]
  binding: binds
[4]
  binding: binds

B2: Fz2-Myc (Myc-tagged Frizzled2) (receptor, UniProt Q9VVX3 23-694)
chain: DGPLHSADHGMGGMGMGGHGLDASPAPGYGVPVIPKDPNLRCEEITIPMCRGIGYNMTSFPNEMNHETQDEAGLEVHQFWPLVEIKCSPDLKFFLCSMYTPICLEDYHKPLPVCRSVCERARSGCAPIMQQYSFEWPERMACEHLPLHGDPDNLCMEQPSYTEAGSGGSSGGSGGSGSGSGSGGKRKQGGSGSGGSGAGGSSGSTSTKPCRGRNSKNCQNPQGEKASGKECSCSCRSPLIFLGKEQLLQQQSQMPMMHHPHHWYMNLTVQRIAGVPNCGIPCKGPFFSNDEKDFAGLWIALWSGLCFCSTLMTLTTFIIDTERFKYPERPIVFLSACYFMVAVGYLSRNFLQNEEIACDGLLLRESSTGPHSCTLVFLLTYFFGMASSIWWVILSFTWFLAAGLKWGNEAITKHSQYFHLAAWLIPTVQSVAVLLLSAVDGDPILGICYVGNLNPDHLKTFVLAPLFVYLVIGTTFLMAGFVSLFRIRSVIKQQGGVGAGVKADKLEKLMIRIGIFSVLYTVPATIVIGCYLYEAAYFEDWIKALACPCAQVKGPGKKPLYSVLMLKYFMALAVGITSGVWIWSGKTLESWRRFWRRLLGAPDRTGANQALIKQRPPIPHPYAGSGMGMPVGSAAGSLLATPYTQAGGASVASTSHHHLHHHVLKQPAASHV
[5]
  binding: binds

B3: Wnt2-Myc (Myc-tagged Drosophila Wnt2) (ligand, UniProt P28465 24-352)
chain: FTSVMLCGRIPGLTPGQRNMCREMPDALIALGEGHQLGAQECQHQFRGHRWNCSEVWQRNVFAHVIPTASREAAYTYAIASAGAAYAVTAACARGNISTCGCDVRHKATPTGGGTPDEPWKWGGCSADVDFGMRYARRFMDARELERDSRTLMNLHNNRAGRTLVKKMLRTDCKCHGVSGSCVMKTCWKSLPPFRLVGDRLMLKYQKAKTVQAVKGKRGLRLVLSRKKHAGTARAQKPVLDWPKRMELIYLEASPNYCERSLQTGSQGTSGRTCQRTGHGPQSCDLLCCGRGHNTQHIRRTTQCRCQFRWCCEVKCDECDESYEEFTCK
[5]
  binding: binds
